{"source": "PubChem BioAssay AID504764 (Drosophila RNAi Screening Center, 2011)", "aim": "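Genome-wide screen for regulators of Notch-driven gene expression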 (primary screen)", "system": "Drosophila Kc167 cells", "reagents": "long dsRNA against Drosophila genes", "timing": "about 5 days (4 days dsRNA, then 24 h after transfection)", "conditions": "transfection of constitutively active membrane-tethered Notch lacking the extracellular domain, read 24 h later", "detection": "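Light from a Notch-responsive E(spl)m3 luciferase reporter under active Notch, with control-promoter and no-Notch reporter wells to normalise; raw counts from paired wells a and b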", "reading the numbers": "induced reporter light, run 1, well a and induced reporter light, run 1, well b: higher = more light from the Notch target reporter with active Notch; control promoter light, run 1, well a and control promoter light, run 1, well b: higher = more light from the viral control promoter (cell number, transfection, viability); uninduced reporter light, run 1, well a: higher = more light from the Notch target reporter without active Notch", "active means": "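Wells with low control signal or poorly matching duplicates excluded; duplicates averaged; per source plate, z beyond ±2 for induced/control log2 ratio or beyond ±1.8 for induced/uninduced marks a hit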", "meaning of the calls": "active = modifier hit (raised or lowered Notch signal); inactive = not a hit", "note": "The deposit covers about 22,000 reagents; shown is a random part of those with a known target gene and a result. Of all reagents, 403 (1.9%) got an active call. 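Unnormalised raw counts per well; ratio z-scores behind the hit calls and whether each hit raises or lowers signal are not deposited.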 Not stated in the record: the amount of reagent."}
{"target":"Dref","dsRNA":"DRSC03319","induced reporter light, run 1, well a":1.16e5,"induced reporter light, run 1, well b":1.38e5,"control promoter light, run 1, well a":1.18e5,"control promoter light, run 1, well b":1.04e5,"uninduced reporter light, run 1, well a":7875,"call":"inactive"}
{"target":"CR14499 (retired record)","dsRNA":"DRSC06470","induced reporter light, run 1, well a":1.39e5,"induced reporter light, run 1, well b":99325,"control promoter light, run 1, well a":86135,"control promoter light, run 1, well b":81775,"uninduced reporter light, run 1, well a":8360,"call":"inactive"}
{"target":"Rich","dsRNA":"DRSC11607","induced reporter light, run 1, well a":1.12e5,"induced reporter light, run 1, well b":1.58e5,"control promoter light, run 1, well a":92595,"control promoter light, run 1, well b":1.08e5,"uninduced reporter light, run 1, well a":11320,"call":"inactive"}
{"target":"Cyp4p1","dsRNA":"DRSC07372","induced reporter light, run 1, well a":1.83e5,"induced reporter light, run 1, well b":1.86e5,"control promoter light, run 1, well a":2.69e5,"control promoter light, run 1, well b":2.40e5,"uninduced reporter light, run 1, well a":18332,"call":"inactive"}
{"target":"CG15561","dsRNA":"DRSC15100","induced reporter light, run 1, well a":1.40e5,"induced reporter light, run 1, well b":1.23e5,"control promoter light, run 1, well a":1.45e5,"control promoter light, run 1, well b":1.43e5,"uninduced reporter light, run 1, well a":9815,"call":"inactive"}
{"target":"Smurf","dsRNA":"DRSC07641","induced reporter light, run 1, well a":1.23e5,"induced reporter light, run 1, well b":91520,"control promoter light, run 1, well a":95065,"control promoter light, run 1, well b":1.07e5,"uninduced reporter light, run 1, well a":8375,"call":"inactive"}
{"target":"IntS8","dsRNA":"DRSC07417","induced reporter light, run 1, well a":57550,"induced reporter light, run 1, well b":58920,"control promoter light, run 1, well a":51650,"control promoter light, run 1, well b":50815,"uninduced reporter light, run 1, well a":8400,"call":"inactive"}
{"target":"Vha36-1","dsRNA":"DRSC07098","induced reporter light, run 1, well a":1.28e5,"induced reporter light, run 1, well b":1.34e5,"control promoter light, run 1, well a":2.19e5,"control promoter light, run 1, well b":2.65e5,"uninduced reporter light, run 1, well a":10130,"call":"inactive"}
{"target":"CG17724","dsRNA":"DRSC06687","induced reporter light, run 1, well a":1.58e5,"induced reporter light, run 1, well b":1.59e5,"control promoter light, run 1, well a":1.53e5,"control promoter light, run 1, well b":1.50e5,"uninduced reporter light, run 1, well a":14842,"call":"inactive"}
{"target":"CG13743","dsRNA":"DRSC05139","induced reporter light, run 1, well a":1.27e5,"induced reporter light, run 1, well b":1.22e5,"control promoter light, run 1, well a":1.97e5,"control promoter light, run 1, well b":1.88e5,"uninduced reporter light, run 1, well a":4978,"call":"inactive"}
{"target":"CG13743","dsRNA":"DRSC06414","induced reporter light, run 1, well a":46885,"induced reporter light, run 1, well b":37860,"control promoter light, run 1, well a":36335,"control promoter light, run 1, well b":37685,"uninduced reporter light, run 1, well a":6365,"call":"inactive"}
{"target":"Dek","dsRNA":"DRSC07418","induced reporter light, run 1, well a":78270,"induced reporter light, run 1, well b":82760,"control promoter light, run 1, well a":1.17e5,"control promoter light, run 1, well b":1.37e5,"uninduced reporter light, run 1, well a":6685,"call":"inactive"}
{"target":"Six4","dsRNA":"DRSC11881","induced reporter light, run 1, well a":48895,"induced reporter light, run 1, well b":42690,"control promoter light, run 1, well a":45310,"control promoter light, run 1, well b":43700,"uninduced reporter light, run 1, well a":2688,"call":"inactive"}
{"target":"CAH4","dsRNA":"DRSC22433","call":"active"}
{"target":"l(3)L1231","dsRNA":"DRSC16323","induced reporter light, run 1, well a":1.58e5,"induced reporter light, run 1, well b":1.34e5,"control promoter light, run 1, well a":1.14e5,"control promoter light, run 1, well b":99030,"uninduced reporter light, run 1, well a":13110,"call":"inactive"}
{"target":"CG1998","dsRNA":"DRSC19829","induced reporter light, run 1, well a":1.33e5,"induced reporter light, run 1, well b":1.48e5,"control promoter light, run 1, well a":2.55e5,"control promoter light, run 1, well b":2.62e5,"uninduced reporter light, run 1, well a":9980,"call":"inactive"}
{"target":"CG3528","dsRNA":"DRSC00611","induced reporter light, run 1, well a":1.19e5,"induced reporter light, run 1, well b":1.11e5,"control promoter light, run 1, well a":1.20e5,"control promoter light, run 1, well b":66235,"uninduced reporter light, run 1, well a":11155,"call":"inactive"}
{"target":"CG10887","dsRNA":"DRSC14277","induced reporter light, run 1, well a":1.65e5,"induced reporter light, run 1, well b":1.47e5,"control promoter light, run 1, well a":1.55e5,"control promoter light, run 1, well b":1.60e5,"uninduced reporter light, run 1, well a":12040,"call":"inactive"}
